Data taken from patent US20030202938A1 (UNIVERSITY OF MEDICINE AND DENTISTRY OF NEW JERSEY, published 2003).
Results are given in words; binding and its absence hold for the method and conditions named. Some entries that bind do so weakly or less than the wild type. For part of these data: Sequences can lack the tags named with a protein. Values belong to the molecule of their own block, whether it stands above or below them.

Protein sequences, listed by entry. Tags and fused reporters are not part of them. Lines headed by an entry give the natural chain unless they say otherwise; changes in a name come on top. Residues count along the entry.
UniProt P20366: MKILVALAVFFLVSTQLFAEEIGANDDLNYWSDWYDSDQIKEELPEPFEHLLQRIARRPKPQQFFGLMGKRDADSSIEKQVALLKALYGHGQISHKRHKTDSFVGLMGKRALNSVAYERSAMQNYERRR
UniProt P02751, residues 627-702: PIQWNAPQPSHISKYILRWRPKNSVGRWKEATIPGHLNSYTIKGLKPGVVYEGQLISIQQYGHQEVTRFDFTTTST

What was measured:
Substance P [1] = target: T1, Substance P (UniProt P20366); test: SELDI-TOF ProteinChip, FN-IIIC covalently bound to PS-1 chip, SP added and detected
T1 sequence (peptide, looked up): RPKPQQFFGLM

Substance P [2] = target: T1, Substance P; test: SELDI-TOF ProteinChip, HGFIN covalently bound to PS-1 chip, SP added and detected
Substance P [3] = target: T1, Substance P; test: SELDI-TOF ProteinChip, HGFIN on PS-1 chip, SP added and detected

binding (Substance P [1]): binds
Molecule: Fibronectin-Fragment III-C (from UniProt P02751 627-702)

binding (Substance P [2]): binds
B1: HGFIN-HAT (Hematopoietic Growth Factor Inducible Neurokinin-1 type protein with histidine affinity tag, expressed from pHAT10-HGFIN in bacteria) (receptor, not shown: small tags and cut ends)
chain: KRFHDVLGNERPSAYMREHNQLNGWSSDENDWNEKLYPVWKRGDMRWKNSWKGGRVQAVLTSDSPALVGSNITFAVNLIFPRCQKEDANGNIVYEKNCRNEAGLSADPYVYNWTAWSEDSDGENGTGQSHHNVFPDGKPFPHHPGWRRWNFIYVFHTLGQYFQKLGRCSVRVSVNTANVTLGPQLMEVTVYRRHGRAYVPIAQVKDVYVVTDQIPVFVTMFQKNDRNSSDETFLKDLPIMFDVLIHDPSHFLNYSTINYKWSFGDNTGLFVSTNHTVNHTYVLNGTFSLNLTVKAAAPGPCPPPPPPPRPSKPTPSLGPAGDNPLELSRIPDENCQINRYGHFQATITIVEGILEVNIIQMTDVLMPVPWPESSLIDFVVTCQGSIPTEVCTIISDPTCEITQNTVCSPVDVDEMCLLTVRRTFNGSGTYCVNLTLGDDTSLALTSTLISVPDRDPASPLRMANSALISVGCLAIFVTVISLLVYKKHKEYNPIENSPGNVVRSKGLSVFLNRAKAVFFPGNQEKDPLLKNQEFKGVS

binding (Substance P [3]): binds
B2: HGFIN expressed in a eukaryotic vector in the absence of the HAT tag (receptor)
chain: B1 chain
